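Malaria parasite (P. falciparum) lines kept in red blood cells; parasite DNA is measured by SYBR Green fluorescence after lysis, 72 h after compound addition.
Each compound was titrated across a series from about 0.000037 to 29 µM.
The number is the fitted AC50, the concentration giving a half-maximal change in signal; a lower value means higher potency, whether the curve shows a decrease or an increase.
Calls follow the curve class and fit quality: every row here is inconclusive, covering signal-raising curves and weak, poorly fitted, partial or highest-dose-only inhibition curves.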

Values are in µM.
Every entry below has the call inconclusive.
Only part of the assay is shown, chiefly results filed as inconclusive.
Potencies fitted to partial, single-point or poorly fitting curves are rough.

SMILES | tested on / at | Potency (µM) | remark
CCN(CC)CCNC(=O)c1cc(S(C)(=O)=O)ccc1OC | CP297 | 6.424 | inhibitor, single point
CCN(CC)CCNC(=O)c1cc(S(C)(=O)=O)ccc1OC | GB4 | 5.726 | inhibitor, single point
COc1c(N2CCNC(C)C2)c(F)cc2c(=O)c(C(=O)O)cn(C3CC3)c12 (stereo not given) | 7G8 | 10 | inhibitor, single point
COc1c(N2CCNC(C)C2)c(F)cc2c(=O)c(C(=O)O)cn(C3CC3)c12 (stereo not given) | AA1029 | 6.31 | inhibitor, partial curve
COc1c(N2CCNC(C)C2)c(F)cc2c(=O)c(C(=O)O)cn(C3CC3)c12 (stereo not given) | CP269 | 15.1 | inhibitor, partial curve, poor fit
COc1c(N2CCNC(C)C2)c(F)cc2c(=O)c(C(=O)O)cn(C3CC3)c12 (stereo not given) | CP262 | 4.256 | inhibitor, partial curve, poor fit
COc1c(N2CCNC(C)C2)c(F)cc2c(=O)c(C(=O)O)cn(C3CC3)c12 (stereo not given) | CP256 | 10 | inhibitor, single point
COc1c(N2CCNC(C)C2)c(F)cc2c(=O)c(C(=O)O)cn(C3CC3)c12 (stereo not given) | CP286 | 10 | inhibitor, single point
COc1c(N2CCNC(C)C2)c(F)cc2c(=O)c(C(=O)O)cn(C3CC3)c12 (stereo not given) | TAB109 | 10 | inhibitor, single point
COc1c(N2CCNC(C)C2)c(F)cc2c(=O)c(C(=O)O)cn(C3CC3)c12 (stereo not given) | CP291 | 21.33 | inhibitor, partial curve, poor fit
COc1c(N2CCNC(C)C2)c(F)cc2c(=O)c(C(=O)O)cn(C3CC3)c12 (stereo not given) | CP250 | 17.78 | inhibitor, single point
COc1c(N2CCNC(C)C2)c(F)cc2c(=O)c(C(=O)O)cn(C3CC3)c12 (stereo not given) | CP194 | 15.1 | inhibitor, partial curve, poor fit
COc1c(N2CCNC(C)C2)c(F)cc2c(=O)c(C(=O)O)cn(C3CC3)c12 (stereo not given) | Dd2 | 14.13 | inhibitor, partial curve, poor fit
C[C@H]1C[C@H]2[C@@H]3CCC4=CC(=O)C=C[C@]4(C)[C@@]3(Cl)[C@@H](O)C[C@]2(C)[C@@]1(O)C(=O)CO | 7G8 | 8.912 | inhibitor, single point
C[C@H]1C[C@H]2[C@@H]3CCC4=CC(=O)C=C[C@]4(C)[C@@]3(Cl)[C@@H](O)C[C@]2(C)[C@@]1(O)C(=O)CO | DIV30 | 0.1069 | inhibitor, full curve, poor fit
C[C@H]1C[C@H]2[C@@H]3CCC4=CC(=O)C=C[C@]4(C)[C@@]3(Cl)[C@@H](O)C[C@]2(C)[C@@]1(O)C(=O)CO | ICS | 10 | inhibitor, partial curve, poor fit
CCNc1nc(Cl)nc(NCC)n1 | parasite line B | 11.22 | inhibitor, single point
CN1CCC[C@@H]1Cc1c[nH]c2ccc(CCS(=O)(=O)c3ccccc3)cc12 | P94_40 | 11.22 | inhibitor, single point
CN1CCC[C@@H]1Cc1c[nH]c2ccc(CCS(=O)(=O)c3ccccc3)cc12 | CP194 | 16.94 | inhibitor, single point
CN1CCC[C@@H]1Cc1c[nH]c2ccc(CCS(=O)(=O)c3ccccc3)cc12 | DIV30 | 13.46 | inhibitor, partial curve
CN1CCC[C@@H]1Cc1c[nH]c2ccc(CCS(=O)(=O)c3ccccc3)cc12 | CP203 | 16.94 | inhibitor, single point
CN1CCC[C@@H]1Cc1c[nH]c2ccc(CCS(=O)(=O)c3ccccc3)cc12 | CP217 | 10 | inhibitor, single point
CN1CCC[C@@H]1Cc1c[nH]c2ccc(CCS(=O)(=O)c3ccccc3)cc12 | CP268 | 9.528 | inhibitor, single point
CN1CCC[C@@H]1Cc1c[nH]c2ccc(CCS(=O)(=O)c3ccccc3)cc12 | GB4 | 8.492 | inhibitor, partial curve
CN1CCC[C@@H]1Cc1c[nH]c2ccc(CCS(=O)(=O)c3ccccc3)cc12 | PC49 | 11.22 | inhibitor, single point
CN1CCC[C@@H]1Cc1c[nH]c2ccc(CCS(=O)(=O)c3ccccc3)cc12 | N140 | 10 | inhibitor, single point
CN1CCC[C@@H]1Cc1c[nH]c2ccc(CCS(=O)(=O)c3ccccc3)cc12 | CP237 | 10 | inhibitor, single point
CN1CCC[C@@H]1Cc1c[nH]c2ccc(CCS(=O)(=O)c3ccccc3)cc12 | CP265 | 11.22 | inhibitor, single point
CN1CCC[C@@H]1Cc1c[nH]c2ccc(CCS(=O)(=O)c3ccccc3)cc12 | PC26 | 12 | inhibitor, partial curve
CN1CCC[C@@H]1Cc1c[nH]c2ccc(CCS(=O)(=O)c3ccccc3)cc12 | CP201 | 19.01 | inhibitor, partial curve, poor fit
CN1CCC[C@@H]1Cc1c[nH]c2ccc(CCS(=O)(=O)c3ccccc3)cc12 | CP211 | 8.492 | inhibitor, single point
CN1CCC[C@@H]1Cc1c[nH]c2ccc(CCS(=O)(=O)c3ccccc3)cc12 | CP286 | 11.22 | inhibitor, partial curve
CN1CCC[C@@H]1Cc1c[nH]c2ccc(CCS(=O)(=O)c3ccccc3)cc12 | CP215 | 19.01 | inhibitor, single point
CN1CCC[C@@H]1Cc1c[nH]c2ccc(CCS(=O)(=O)c3ccccc3)cc12 | P93_24 | 10 | inhibitor, single point
CN1CCC[C@@H]1Cc1c[nH]c2ccc(CCS(=O)(=O)c3ccccc3)cc12 | C2A | 10 | inhibitor, single point
CN1CCC[C@@H]1Cc1c[nH]c2ccc(CCS(=O)(=O)c3ccccc3)cc12 | ATS95 | 10 | inhibitor, single point
CN1CCC[C@@H]1Cc1c[nH]c2ccc(CCS(=O)(=O)c3ccccc3)cc12 | TAB109 | 11.22 | inhibitor, single point
CN1CCC[C@@H]1Cc1c[nH]c2ccc(CCS(=O)(=O)c3ccccc3)cc12 | TAB165 | 14.13 | inhibitor, single point
CN1CCC[C@@H]1Cc1c[nH]c2ccc(CCS(=O)(=O)c3ccccc3)cc12 | PAD | 11.22 | inhibitor, single point
CN1CCC[C@@H]1Cc1c[nH]c2ccc(CCS(=O)(=O)c3ccccc3)cc12 | ATS189 | 10 | inhibitor, single point
CN1CCC[C@@H]1Cc1c[nH]c2ccc(CCS(=O)(=O)c3ccccc3)cc12 | CP247 | 8.912 | inhibitor, single point
CN1CCC[C@@H]1Cc1c[nH]c2ccc(CCS(=O)(=O)c3ccccc3)cc12 | CP260 | 10 | inhibitor, single point
CN1CCC[C@@H]1Cc1c[nH]c2ccc(CCS(=O)(=O)c3ccccc3)cc12 | CP256 | 11.22 | inhibitor, single point
CN1CCC[C@@H]1Cc1c[nH]c2ccc(CCS(=O)(=O)c3ccccc3)cc12 | CP250 | 8.912 | inhibitor, single point
CN1CCC[C@@H]1Cc1c[nH]c2ccc(CCS(=O)(=O)c3ccccc3)cc12 | CP291 | 13.46 | inhibitor, partial curve
CN1CCC[C@@H]1Cc1c[nH]c2ccc(CCS(=O)(=O)c3ccccc3)cc12 | AA1029 | 10 | inhibitor, single point
CN1CCC[C@@H]1Cc1c[nH]c2ccc(CCS(=O)(=O)c3ccccc3)cc12 | CP335 | 13.46 | inhibitor, single point
CN1CCC[C@@H]1Cc1c[nH]c2ccc(CCS(=O)(=O)c3ccccc3)cc12 | AS120 | 10 | inhibitor, single point
CN1CCC[C@@H]1Cc1c[nH]c2ccc(CCS(=O)(=O)c3ccccc3)cc12 | PC15 | 10 | inhibitor, partial curve
CN1CCC[C@@H]1Cc1c[nH]c2ccc(CCS(=O)(=O)c3ccccc3)cc12 | CP325 | 8.492 | inhibitor, partial curve, poor fit

For reference, 5 entries once more:

* COc1c(N2CCNC(C)C2)c(F)cc2c(=O)c(C(=O)O)cn(C3CC3)c12 (stereo not given) [CP256] : Potency 10 µM (inhibitor, single point)
* CN1CCC[C@@H]1Cc1c[nH]c2ccc(CCS(=O)(=O)c3ccccc3)cc12 [CP325] : Potency 8.492 µM (inhibitor, partial curve, poor fit)
* CN1CCC[C@@H]1Cc1c[nH]c2ccc(CCS(=O)(=O)c3ccccc3)cc12 [CP217] : Potency 10 µM (inhibitor, single point)
* C[C@H]1C[C@H]2[C@@H]3CCC4=CC(=O)C=C[C@]4(C)[C@@]3(Cl)[C@@H](O)C[C@]2(C)[C@@]1(O)C(=O)CO [7G8] : Potency 8.912 µM (inhibitor, single point)
* CN1CCC[C@@H]1Cc1c[nH]c2ccc(CCS(=O)(=O)c3ccccc3)cc12 [PC49] : Potency 11.22 µM (inhibitor, single point)

Source: PubChem BioAssay AID504749 (NCATS, 2011).